Experimental data: the supplement of paper PMC3334620
In all, about 33,000 sequences were measured (“E-score (-0.5 to 0.5)”: median about -0.0059, highest 2% from about 0.26 on). The list shows a part of the results.

Molecular target: T1, Cin5 (UniProt P40917)
T1 sequence: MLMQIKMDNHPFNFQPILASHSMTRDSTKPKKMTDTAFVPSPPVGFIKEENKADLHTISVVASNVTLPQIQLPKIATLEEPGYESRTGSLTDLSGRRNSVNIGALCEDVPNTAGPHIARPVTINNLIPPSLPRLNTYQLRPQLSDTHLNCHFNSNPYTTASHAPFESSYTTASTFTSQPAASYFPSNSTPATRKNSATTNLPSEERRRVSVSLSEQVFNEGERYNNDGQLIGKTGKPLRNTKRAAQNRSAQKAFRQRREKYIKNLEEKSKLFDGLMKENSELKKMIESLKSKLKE
Assay: PBM E-score (8-mer binding enrichment) (E-score (-0.5 to 0.5)); higher = stronger / more preferred TF binding
Conditions: protein concentration: 100 nM; construct: GST-full length
Method in brief: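 Each ungapped eight-base word and its reverse complement, pooled, received an E-score from the Universal PBM Analysis Suite. Underlying scans, normalised with masliner, recorded fluorescent anti-GST bound to GST-tagged yeast transcription factors. These were applied at about 100-200 nM to universal all-10-mer Agilent arrays double-stranded by primer extension.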

Sequence | PBM E-score
CGCAGCCA | -0.2
TCACAAGA | 0.0107
ATGCGTAC | 0.0118
GTTTGCGA | 0.0898
CGCCGAAC | 0.0689
ATAACCGA | -0.00875
CAAGGTGA | -0.0314
ATATGTCA | 0.19
GCAGTGCC | -0.286
GGTCACGA | 0.0234
CGGCAGAA | -0.0233
TGGAACCA | 0.104
CAAGTAAG | -0.0336
AAACGATT | 0.187
CAGCGAGG | -0.174
GCATCTGA | -0.131
CCATTTGC | -0.0122
ACGAACCA | 0.231
AGATTCCT | -0.119
GCCTATAC | -0.169
GAGTAGAC | -0.00052
CCAAACAG | -0.00826
CAAAGCTC | -0.304
GCCAGGAA | -0.152
AGTGACAT | 0.164

7 entries picked at random from those above:
Sequence | PBM E-score
GCCAGGAA | -0.152
CAAGTAAG | -0.0336
ATAACCGA | -0.00875
CAAGGTGA | -0.0314
TCACAAGA | 0.0107
ATATGTCA | 0.19
GCCTATAC | -0.169

Additional results follow:

Sequence | PBM E-score
GAGCGCTA | -0.013
GACCGTCC | -0.276
AACACGTA | 0.088
AACGTAGG | -0.0785
GTTATCCA | 0.135
CCATAGAC | -0.0765
AATTCATA | 0.167
CCAGTTAA | 0.134
ACTCTGCC | -0.0409
CTGTTTAC | 0.0607
CTCCTAAC | -0.0304
ACCGAGAA | 0.083
ACGCACTG | -0.137
AAAAGACA | 0.193
GAGTGGGA | -0.147
CCACGCGG | -0.212
CCCATTAA | -0.0763
AATCATCA | 0.229
CATGGAAA | 0.212
ACAGCAGG | -0.022
ATGACGGA | 0.16
GCTATTTA | 0.0457
GAAGCATA | -0.101
CGTGTATA | 0.222
ATAGCGCA | 0.0568

Sequence | PBM E-score
AGTGAATG | 0.248
AAGCGAAG | -0.0254
ATGTCTTG | 0.0456
ACAATCAT | 0.159
GCGCAAGA | 0.0403
TACGATCA | 0.184
CCCTGAAC | 0.064
GACTCTTA | 0.156
CTCTGAGA | -0.0821
GGCGGAAC | 0.0816
AGGCGTCC | -0.121
CCATGGCC | -0.128
CATCCAGC | -0.0337
AACAAAAG | -0.0456
GAGCTAGA | -0.17
CCTATTGA | -0.0739
AGACCTAT | -0.028
AAGCCCAT | 0.0327
AACATCAT | 0.159
AAGGCCAA | -0.263
GCTCACCC | -0.199
CTGCCTTC | -0.0771
CGCGAAAG | 0.0342
CGGGTCAG | 0.00547
GATGAGAC | 0.0922

Sequence | PBM E-score
CTTACTAA | 0.313
GACGGAGA | -0.0903
ACTAACCC | 0.0917
TCGTGTAA | 0.0987
AGTCATCG | -0.024
CTGAGAAG | -0.0987
ATTGCCCA | 0.0539
TGACGCCA | -0.133
GAGCCGAC | -0.245
CGCCTATA | 0.0177
CATATGGA | 0.0562
GCCTTAGA | -0.135
CCTACACC | -0.072
AAATTAAT | 0.107
TGTACAAA | 0.174
AGCTCTGC | -0.271
AATGTAGA | 0.0731
AGCTTGCG | -0.231
CTGTATAA | 0.161
AGAGTTAG | 0.0104
ATTCATAG | 0.187
GCTTGTAC | 0.052
CCGGAGCA | -0.164
ACCGAACA | -0.00929
CAATTGGC | 0.165

Sequence | PBM E-score
GCGCCAGA | -0.18
TCCATTAA | 0.0123
AAAGTGCG | 0.0544
TTAGCAAA | 0.16
GTATCCAC | -0.00124
GACATAGA | -0.0559
CGTATGCC | -0.12
CTCAAAAG | -0.0668
TACCGCCA | 0.121
AAGCCAGA | -0.069
AACCTAAT | -0.00149
ATTCCGCG | 0.261
ACTACCGA | -0.234
CTGCCTGA | 0.0937
AATATGAA | 0.258
CAGCTCGG | -0.114
ACACGAAT | 0.135
GTATCGGA | 0.0545
GGACGCAC | -0.0295
GTAGAATA | 0.194
TCCACGCA | -0.029
ACGTGACG | 0.0158
CTAGCAAC | 0.0586
CACGGAAA | 0.224
ATCACAAT | 0.206

Sequence | PBM E-score
GAGTCCGC | -0.294
TAGATGGA | 0.00818
CCACAGCC | -0.186
CCCAGTCC | -0.128
CCCACTGA | 0.0409
CACAAAGG | 0.0674
AGCAGACA | -0.0863
ACGGACAT | 0.0391
AATTCAAA | 0.133
ACCAAGGG | -0.177
GGGTGTAA | 0.0982
GGTCGCGA | 0.0913
AGGGTGCC | -0.217
ATAGTCAA | -0.0149
GTGACATA | 0.303
CTCCAGAG | -0.181
CCTCCTAG | -0.131
AGGACTGG | -0.175
ACCTAATA | 0.246
GGACATGA | -0.0754
ATCCTAAA | -0.172
ACAACTAA | 0.217
ACTGACAA | 0.159
GCAAGTCA | 0.115
GTGCTTAA | 0.153

Sequence | PBM E-score
CCAGAAGG | -0.187
ACATTTTC | 0.15
GACCTCCC | -0.341
ATCGTCAC | 0.118
TAGGATAA | 0.139
CGCTAACC | -0.24
TCGGGGCA | -0.00058
TCATCGGA | -0.0215
AGGAAGAC | -0.237
ACACGATG | 0.14
GGTATAAC | -0.016
ATCGGCGC | 0.0592
ACGCCTCA | -0.17
GCATTAAC | 0.0234
AAATAAGG | 0.142
AGCTCCAC | -0.121
TAGCGACA | -0.0537
CACCAGAG | -0.111
GTTACTTA | 0.225
AGTTTTAG | 0.038
GCGCCCGA | -0.103
AAGACGCA | -0.0693
